Reference: PubChem BioAssay AID652272 (Drosophila RNAi Screening Center, 2013)
The screen tested about 21,000 reagents; shown is a random part of those with a known target gene and a result. Of all reagents, 503 (2.4%) were called active. 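Raw plate light values, not normalised; calls rest on replicate z-scores that were not deposited; hits include reporter decreases as well as increases.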 Reagents against one gene are numbered here. Names joined by + are all predicted targets of the reagent. The record does not give: the amount of reagent, the time to read-out.

Test: 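Genes whose knock-down decreases or increases Hedgehog reporter output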 (primary screen)
System: Drosophila clone 8 (Cl8) cells
Reagents: long dsRNA against Drosophila genes
Measured: 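Plate reader light from a firefly reporter under a ptc promoter fragment that responds to Hedgehog, with Renilla light as transfection reference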
Scale: firefly Hh reporter signal: higher = more ptc reporter light; Renilla reference signal: higher = more Renilla control light
Rule for the call: 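Called a hit if the two-replicate mean z-score lies below -2 or above +3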
Calls: active = hit: reporter lowered or raised; inactive = not a hit

Gene	dsRNA no.	firefly Hh reporter signal, replicate 1	firefly Hh reporter signal, replicate 2	firefly Hh reporter signal, replicate 3	Renilla reference signal, replicate 1	Renilla reference signal, replicate 2	outcome
CG12991	1	67767	1.90e5		1700	7769	inactive
CG42758	1	1.25e5			3248	3208	inactive
CG13319	1	5.91e5	1.17e5		5396	5396	inactive
CG15784	1	52691	1.64e5		1228	6995	inactive
CG3502	1	73408	67961		2857	2772	inactive
tut	1	1.20e5	2.23e5		2969	9371	inactive
Or67d	1	80530	41289	29392	4921	2832	inactive
CG13051	1	1.70e5			6509	4773	inactive
wrm1 + wrm2	1	1.54e5	98825		5676	3965	inactive
CG31949	1	5.16e5	2.60e5		30065	9969	inactive
CG3982	1	43497	13783	20800	1731	1349	inactive
Polr1E	1	5.05e5	80836		29100	1824	inactive
Polr1E	2	1.06e5	84396		4784	3777	inactive
Mcr	1	99187	33404		4144	1091	inactive
Dis3l2	1	81211	62745		3837	2537	inactive
vib	1	1.10e5	1.39e5		4708	5331	inactive
Golgin245	1	1.46e5	1.14e5		5964	4842	inactive
CG9121	1	1.06e5	48928		2619	4477	inactive
asRNA:CR43477 + CG12256	1	61500	1.34e5		2407	3733	inactive
Tsp42Eh	1	91088	50820		2313	4024	inactive
CG10474	1	78113	64409		2088	4443	inactive
CG7453	1	92688	2.18e5		2820	9344	inactive
hyx	1	1.10e5	1.20e5		3568	3443	inactive
CCDC151	1	52220	30422	37001	4144	3424	inactive
CG3419 (retired record)	1	78965	78025		1751	6262	inactive
CG3419 (retired record)	2	85949	77289		1719	5972	inactive

Part of the list above, set out differently:
| Gene | dsRNA no. | firefly Hh reporter signal, replicate 1 | firefly Hh reporter signal, replicate 2 | firefly Hh reporter signal, replicate 3 | Renilla reference signal, replicate 1 | Renilla reference signal, replicate 2 | outcome |
| --- | --- | --- | --- | --- | --- | --- | --- |
| CG10474 | 1 | 78113 | 64409 | – | 2088 | 4443 | inactive |
| CG7453 | 1 | 92688 | 2.18e5 | – | 2820 | 9344 | inactive |
| hyx | 1 | 1.10e5 | 1.20e5 | – | 3568 | 3443 | inactive |
| CCDC151 | 1 | 52220 | 30422 | 37001 | 4144 | 3424 | inactive |
| CG3419 (retired record) | 1 | 78965 | 78025 | – | 1751 | 6262 | inactive |

Continued.
Gene	dsRNA no.	firefly Hh reporter signal, replicate 1	firefly Hh reporter signal, replicate 2	firefly Hh reporter signal, replicate 3	Renilla reference signal, replicate 1	Renilla reference signal, replicate 2	outcome
CG13428	1	1.40e5	53656		3632	304	inactive
eEF1alpha1	1	53945	41184		1133	3091	inactive
Prp40	1	60887	54666		3194	3171	inactive
CG6325	1	1.07e5	74508		3968	2875	inactive
Or13a	1	56976	1.70e5		1505	7027	inactive
CG7530	1	1.55e5	1.69e5		5910	6045	inactive
Socs36E	1	1.18e5	5.39e5	1.05e5	4676	29808	inactive
Ice1	1	52112	40160		1449	3961	inactive
CG18744	1	78437	1.08e5		3520	3245	inactive
Prim1	1	43429	43603		5216	4077	inactive
jdp	1	88344	1.07e5		1603	3164	inactive
CG13170	1	78832	33781		2450	3275	inactive
CG3708	1	1.11e5	3.37e5		3504	10470	inactive
ich	1	1.56e5			2656		inactive
ich	2	90193	1.07e5		3987	2992	inactive
CG30383	1	95527	1.77e5		2512	7400	inactive
iav	1	67728	2.85e5		3081	10937	inactive
wac	1	1.08e5	39546		4149	2240	inactive
asRNA:CR43159 + yellow-k	1	1.67e5			6391	4650	inactive
Lnpk	1	62564	58204		2978	2644	inactive
CG17707	1	64480	2.71e5		2044	11202	inactive
CG11771	1	76677	89529		3015	3431	inactive
CG14131	1	37142	22841	46304	3595	4297	inactive
RpL22-like	1	78571	83233		1331	7651	inactive
CG10307	1	79721	53456		3010	2194	inactive
Proc	1	28020	8987		1050	1027	inactive
ATPsynF	1	1.16e5	1.05e5		4258	3869	inactive
Asx	1	40123	14375		1472	1760	active
Obp99a	1	39802	55488		2037	2449	inactive
CG13810	1	1.56e5	66258		5217	5021	inactive
Art2	1	74504	44444		896	4806	inactive
